Laboratory results from patent US20170210809A1 (DYAX, published 2017).
Results are given in words; binding and its absence hold for the method and conditions named. Some results given as binding are weak or reduced against the parent protein; the word gives no strength.

By UniProt entry, the sequences of proteins in these tests, tags left out. Residues count along the entry.
UniProt P21860, residues 20-643: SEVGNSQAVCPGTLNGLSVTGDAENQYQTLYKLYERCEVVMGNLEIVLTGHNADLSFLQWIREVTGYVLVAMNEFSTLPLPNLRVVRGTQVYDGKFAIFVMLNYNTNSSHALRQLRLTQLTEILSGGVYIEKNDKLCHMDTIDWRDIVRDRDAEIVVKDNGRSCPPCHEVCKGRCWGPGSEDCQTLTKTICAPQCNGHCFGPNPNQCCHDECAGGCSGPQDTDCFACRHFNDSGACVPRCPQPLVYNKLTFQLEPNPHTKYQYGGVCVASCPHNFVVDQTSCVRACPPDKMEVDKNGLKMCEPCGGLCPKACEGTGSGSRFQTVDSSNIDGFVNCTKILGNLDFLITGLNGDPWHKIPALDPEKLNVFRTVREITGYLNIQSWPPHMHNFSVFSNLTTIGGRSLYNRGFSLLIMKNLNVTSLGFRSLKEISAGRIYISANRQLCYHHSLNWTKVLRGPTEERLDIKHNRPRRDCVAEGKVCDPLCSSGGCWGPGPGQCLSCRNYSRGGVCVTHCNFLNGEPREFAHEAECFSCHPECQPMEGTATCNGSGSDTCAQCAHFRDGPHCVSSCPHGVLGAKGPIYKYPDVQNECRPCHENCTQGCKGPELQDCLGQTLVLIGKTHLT

Molecular target: ErbB3 (as used in the competition assays) (human) (UniProt P21860)
Assay: competition assays

B1: SEQ ID NO 33 (scFv)
scFv: EVQLLESGGGLVQPGGSLRLSCAASGFTFSAYNMRWVRQAPGKGLEWVSVIYPSGGATRYADSVKGRFTISRDNSKNTLYLQMNSLRAEDTAVYYCARGYYYYGMDVWGQGTLVTVSSASTGGGGSGGGGSGGGGSQSVLTQPPSASGTPGQRVTISCSGSDSNIGRNYIYWYQQFPGTAPKLLIYRNNQRPSGVPDRISGSKSGTSASLAISGLRSEDEAEYHCGTWDDSLSGPVFGGGTKLTVLS
binding: binds

B2: SEQ ID NO 44 (scFv)
scFv: EVQLLESGGGLVQPGGSLRLSCAASGFTFSVYDMYWVRQAPGKGLEWVSYIYSSGGDTDYADSVKGRFTISRDNSKNTLYLQMNSLRAEDTATYYCARASTNSIYDAMDVWGQGTTVTVSSASTGGGGSGGGGSGGGGSDIQMTQSPSSVSASVGDRVTITCRASQDITNWLAWYQQKPGKAPTLLIYDASTLQSGVPSRFSGSGSGTDFTLTISSLQPEDFATYFCQQANGFPLTFGGGTKVEIK
binding: binds
